In the supplement of paper PMC10338343:
± gives the standard deviation. The list shows a part of the results, in another mix than the full data. Many entries were measured with a wide error.

test system: MILI (PIWIL2) piRISC loaded with piRNA #2 (26 nt); test: pre-steady-state target cleavage rate (min^-1); MIWI and MILI are mouse PIWI proteins and EfPiwi is from a freshwater sponge; tags in brackets are library labels; higher = faster piRNA-guided slicing of the target; conditions: guide: piRNA #2 5'p-UUAGGUAACCCAGUAGAUCCAGAGGA; auxiliary factor: 500 nM mouse GTSF1
Protocol: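 Cleave-'n-Seq: a library of target RNAs (target site embedded in constant flanks, ACAGCATTCCGCGTTAGTGATATCCG... 5' flank; DNA-blocked outside the site) at 0.1 nM was incubated with 1 nM active mouse MILI or MIWI piRISC (synthetic 5'-monophosphorylated piRNA guide) with or without 500 nM mouse GTSF1 at 33 °C for 1 min to 16 h. Uncleaved targets were sequenced and normalised to non-target controls, and the pooled three trials were fitted to a burst-and-steady-state model to give the pre-steady-state cleavage rate (min^-1; k3 is constrained to at most 1e-4). Sequence is the target site only; target names encode pairing extent (gX:gY) and contiguous / 1-mismatch / 2-mismatch / bulge geometry. Fits with R² ≤ 0 are excluded.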

Row | Sequence | pre-steady-state target cleavage rate
1 | CUUAAGGUCUGGAUCUACUGCCUUACCUAA | 0.000395 ± 0.02
2 | CUUAAGGAGACCAUCUACUGCGUUAGCUAA | 0.000199 ± 0.036
3 | CUUAAGGACUCGAUCUACUGGGUUACCUAA | 0.0128 ± 0.0065
4 | CUUAAGGAGACCUUCUACUGGUUACCUAA | 0.000548 ± 0.0072
5 | CUUAAGGAGACCUAGAUGGGGGUUACCUAA | 0.000504 ± 0.031
6 | CUUAAGGAGACCUUCUACAGGGUAACCUAA | 0.000458 ± 0.016
7 | CUUAAGGAGACCUAGAUGAGGGUUACCUGAA | 0.00032 ± 0.023
8 | CUUAAGGAGACCAUCUACUGGGCUUACCUAA | 0.000654 ± 0.02
9 | CUUAACCUCUGGAUCUAGACGGUUACCUAA | 0.00288 ± 0.0035
10 | CUUAAGCUCUGUAUCUACUGGGUUACCUAA | 0.0444 ± 0.0099
11 | CUUAAGGAGACGAUCUACUGGUGUUACCUAA | 0.00091 ± 0.0058
12 | CUUAAGGAGAGGUUCUACUGGCUUACCUAA | 0.000816 ± 0.0095
13 | CUUAAGGAGACGAUCUUCUGCGUUACCUAA | 0.00256 ± 0.0031
14 | CUUAACCUGUGGAUCUACUCGGUUACCUAA | 0.00105 ± 0.013
15 | CUUAAGGAGACCUUGAACUGGGUUACCUAA | 0.000419 ± 0.017
16 | CUUAAGGAGAGGAUCUAGUGGGUUACCUAA | 0.00355 ± 0.0048
17 | CUUAAGGAGACCUUCUAAUGGGUUACCUAA | 0.000416 ± 0.016
18 | CUUAAGGAGACCUACUGACUGGGUUACCUAA | 0.000103 ± 0.05
19 | CUUAAGGAGACGAUGUACUGGGUAACCUAA | 0.000175 ± 0.019
20 | CUUAAGGAGAGCAUCUACUGGGUUAGCUAA | 0.00261 ± 0.0045

Two consecutive records out of the list so far:
Row | Sequence | pre-steady-state target cleavage rate
9 | CUUAACCUCUGGAUCUAGACGGUUACCUAA | 0.00288 ± 0.0035
10 | CUUAAGCUCUGUAUCUACUGGGUUACCUAA | 0.0444 ± 0.0099

More results:

Row | Sequence | pre-steady-state target cleavage rate
21 | CUUAAGGAGACGAUCUACUGGGUUACCAAA | 0.00117 ± 0.006
22 | CUUAAGGAGACCAUCUAACUGGGUUACCUAA | 0.000887 ± 0.0093
23 | CUUAAGCUCUGGAUUACUGGGUUACCUAA | 0.0142 ± 0.0047
24 | CUUAAGGAGACCUAGUACUGGGUUAACUAA | 0.000258 ± 0.022
25 | CUUAAGGUCUGGAUCUACUGGGUUACCCAA | 0.00342 ± 0.0051
26 | CUUAAGCUCUGGAUCUACUGGGUUUCGUAA | 0.0193 ± 0.0086
27 | CUUAAGGAGUGGAUCUACGUGGGUUACCUAA | 0.000183 ± 0.036
28 | CUUAAGGAGACCUACGUACUGGGUUACCUAA | 0.000297 ± 0.037
29 | CUUAAGGAGAGGAUUCUACUGGGUUACCUAA | 0.00418 ± 0.0043
30 | CUUAAGGAGAGGAUGUACUGGGUUACCAAA | 0.000383 ± 0.026
31 | CUUAAGGAGUCGAUCUACUGGGUUUCCUAA | 0.00241 ± 0.0043
32 | CUUAAGGAGACCAUCUACUGGGUUGACCUAA | 0.000514 ± 0.027
33 | CUUAAGGAGACCAUGUACUGGGUUACGUAA | 0.000293 ± 0.018
34 | CUUAAGGAGACCUAGAUCAGCGUUACCUAA | 0.000214 ± 0.039
35 | CUUAAGGACUGGAUCAACUGGGAUACCUAA | 0.00247 ± 0.014
36 | CUUAAGGAGAGGUUCUACUGGGUUAGCUAA | 0.000608 ± 0.01
37 | CUUAAGGAGACCUAGAUGACCCAUACCUAG [g2:g7:cont:t1G] | 0.000117 ± 0.046
38 | CUUAUCCUCUGGGUCUACUGGGUUACCUAA | 0.206 ± 0.035
39 | CUUAAGGAGACCUUCUACUGCGUUACCAAA | 0.000139 ± 0.021
